Out of some 400,000 compounds screened, about 13,000 (3.2%) were called active. The inconclusive results got no clear call from the source; some entries with a clear call stand among them for comparison. Calls come from the whole dose curve; as a rule, active = well fitted cell-killing curve with a large enough effect; inconclusive = small, poorly fitted or top-dose-only effect, or effect the other way; inactive = flat fitted curve, though single readings scatter. Potencies of inconclusive entries are doubtful fits and often do not repeat.
Assay: qHTS assay for MDR1-selective chemotherapeutics: Primary screen using the drug-selected MDR subline cells KB-V1; note: nearly all actives have a fitted effect of over 60% in size
Conditions: KB-V1 MDR cells viability, CellTiter-Glo, 72 h; activity change, negative = cytotoxicity: at 46.1 µM (top of the series)
In short: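 Cytotoxicity toward P-gp-expressing KB-V1 cells was determined as loss of CellTiter-Glo luminescence after 72 h at 37 degrees C. Compounds were tested in quantitative HTS format across a concentration range, with curves fitted to normalized data.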
% is set by controls: 0 for no effect and ±100 for the full control effect; potency is the fitted concentration of half-maximal effect.

| SMILES | Potency | activity change, negative = cytotoxicity |
| --- | --- | --- |
| CCC(CC)c1nnc(NC(=O)CN2C(=O)NC3(CCCC3)C2=O)s1 | inconclusive: 29.1 µM [rising, partial curve, poor fit] |  |
| Cc1ccc([C@H]2C[C@@H](n3cc(COC(=O)c4ccccc4)nn3)[C@H](O)CN2CC2CCCCC2)cc1 | inconclusive: 16.4 µM [rising, partial curve, poor fit] |  |
| Cc1cccc(-n2ncc(C(=O)NCc3ccc4c(c3)OCO4)c2C2CCN(C(=O)OC(C)(C)C)CC2)c1 |  | inactive: 20.6% |
| Nc1c(-c2ccccc2)c(CSc2nc3ccccc3[nH]2)nn1-c1cccc(Cl)c1 | inconclusive: 16.4 µM [cytotoxic, single point] |  |
| CCCCN(C(=O)/C=C/c1ccc(OC)cc1)C1CCS(=O)(=O)C1 (stereo not drawn) | inconclusive: 8.2 µM [cytotoxic, partial curve, poor fit] |  |
| CCC(C)c1ccccc1OCCOCCN1CCCC1 (stereo not drawn) | inconclusive: 29.1 µM [cytotoxic, partial curve, poor fit] |  |
| N#CC1=C(N)N(c2ccccc2)C(c2ccccc2)C1(C#N)C#N (stereo not drawn) | inconclusive: 20.6 µM [cytotoxic, single point] |  |
| CC(C)C(CCNC1CCN(C)CC1)c1ccc(Cl)cc1 (stereo not drawn) | inconclusive: 16.4 µM [cytotoxic, single point] |  |
| CNC(=O)COc1ccc(Nc2nnc(-c3ccc(C)c(S(N)(=O)=O)c3)c3ccccc23)cc1 | inconclusive: 6.51 µM [rising, full curve] |  |
| O=C1[C@H](Cc2ccccc2)NC/C=C\C[C@H](c2ccc(Cl)cc2)N1Cc1ccc(Cl)cc1 | inconclusive: 14.6 µM [cytotoxic, partial curve] |  |
| O=C(O)c1ccc(Nc2cccc(F)c2)c([N+](=O)[O-])c1 | inconclusive: 16.4 µM [rising, partial curve, poor fit] |  |
| Clc1cccc(-c2nc(NCC3CCCO3)c3ccccc3n2)c1 (stereo not drawn) | inconclusive: 20.6 µM [cytotoxic, single point] |  |
| CCN1C(=O)C(=O)N(CC(=O)N2CCC(C)Sc3ccccc32)C1=O (stereo not drawn) |  | inactive: -16.8% |
| CCOc1ccc(/C(C)=N/NC(=O)C(OC)c2ccccc2)cc1 (stereo not drawn) | inconclusive: 29.1 µM [cytotoxic, single point] |  |
| CCOc1ccc(C(C(=O)NC2CCCC2)N(Cc2ccccc2)C(=O)c2nsc(Cl)c2Cl)cc1 (stereo not drawn) | inconclusive: 29.1 µM [cytotoxic, single point] |  |
| Cc1ccccc1C#CC1=CC(=O)CC(C)(C)C1 |  | inactive: 20.2% |
| CC1=C(C(=O)OCC(C)C)C(c2cccs2)NC(=S)N1 (stereo not drawn) | inconclusive: 18.4 µM [cytotoxic, single point] |  |
| Cc1cc(NC(=O)c2cccs2)cc(-c2nc3cc(Cl)ccc3o2)c1O | inconclusive: 13 µM [cytotoxic, partial curve] |  |
| NC(=O)CNC1CC(=O)N(CCc2ccccc2)C1=O (stereo not drawn) | inconclusive: 29.1 µM [rising, partial curve, poor fit] |  |
| CC(=O)c1ccc([N+](=O)[O-])c(CS(=O)(=O)c2ccc(Cl)cc2)c1 |  | inactive: -3.95% |
| O=C(CSc1n[nH]c(-c2ccncc2)n1)NC1CCS(=O)(=O)C1 (stereo not drawn) | inconclusive: 29.1 µM [rising, single point] |  |
| Cc1cccc(C)c1NC1=NC(=S)N(c2ccc(C(=O)O)cc2)C12CCCCC2 | inconclusive: 29.1 µM [rising, single point] |  |
| N[C@@H](Cc1ccccc1)C(=O)N1CCOCC1 | inconclusive: 16.4 µM [rising, single point] |  |

Two records drawn at random from the list so far, as already listed:

| SMILES | Potency | activity change, negative = cytotoxicity |
| --- | --- | --- |
| O=C(O)c1ccc(Nc2cccc(F)c2)c([N+](=O)[O-])c1 | inconclusive: 16.4 µM [rising, partial curve, poor fit] |  |
| N[C@@H](Cc1ccccc1)C(=O)N1CCOCC1 | inconclusive: 16.4 µM [rising, single point] |  |

The list goes on:

| SMILES | Potency | activity change, negative = cytotoxicity |
| --- | --- | --- |
| COc1ccc(NC(=O)NC2CCCCCCC2)cc1OC | inconclusive: 0.0366 µM [cytotoxic, full curve] |  |
| Cc1cccnc1Nc1ncnc(N)c1[N+](=O)[O-] |  | inactive: 1.59% |
| O=C(NCCOc1ccc(F)cc1)C1CCN(S(=O)(=O)c2ccccc2)CC1 | inconclusive: 32.6 µM [cytotoxic, single point] |  |
| COc1cc2c(cc1OC)CN(CC(=O)Nc1ccccc1SC)CC2 | inconclusive: 23.1 µM [cytotoxic, single point] |  |
| CC1CC(=O)N(c2ccc(NCCc3ccc(O)cc3)c([N+](=O)[O-])c2)C1=O (stereo not drawn) | inconclusive: 18.4 µM [cytotoxic, partial curve, poor fit] |  |
| COc1ccc(N2CCN(Cc3nc4c(c(=O)n(C)c(=O)n4C)n3CCc3ccccc3)CC2)cc1 |  | inactive: 16% |
| COc1ccccc1C(=O)Nc1nc(-c2ccc(S(=O)(=O)N3CCOCC3)cc2)cs1 | active: 4.61 µM |  |
| Cc1ccc(OCc2nnc(SCC(=O)c3ccccc3)n2-c2ccccc2)cc1 |  | inactive: -27.5% |
| COCC1CCN(C(=O)c2cc(COc3cc(C)c(Cl)c(C)c3)on2)C1 (stereo not drawn) |  | inactive: -11.2% |
| Cc1ccc(S(=O)(=O)NN2CCCCCC2)cc1 |  | inactive: 0.775% |
| Cc1cc2nc(C(C)(C)C)c(Cc3ccsc3)n2c(C)c1Br |  | inactive: -15.1% |
| CCCCC[C@@H]1C=C(C(=O)O)[C@H](c2ccc3c(c2)OCO3)N1S(=O)(=O)c1ccc(C)cc1 |  | inactive: -0.121% |
| Cc1cc(S(=O)(=O)Nc2cccnc2)c(C)s1 | inconclusive: 10.3 µM [rising, partial curve, poor fit] |  |
| COC(=O)c1scc(C)c1N1C(=O)c2ccccc2C1=O |  | inconclusive: 4% |
| CCCOc1cccc(NC(=O)c2cc(C)oc2C)c1 |  | inactive: -12.5% |
| Cc1ccc(OCCCCn2ccnc2C)c(C)c1 | inconclusive: 8.2 µM [cytotoxic, partial curve] |  |
| O=C1CN(C(=O)CN2CCCC2)C(c2ccccc2)c2cc(Br)ccc2N1 (stereo not drawn) | inconclusive: 29.1 µM [cytotoxic, single point] |  |
| CCc1ccc(C(=O)NNc2cc(Cl)ccc2Cl)cc1 | inconclusive: 29.1 µM [cytotoxic, single point] |  |
| C[C@@H]1CCC(=O)N(C[C@@H](C)CC#N)CC1 | inconclusive: 29.1 µM [rising, single point] |  |
| O=C(c1ccccc1Br)N1CCN(Cc2ccc3c(c2)OCO3)CC1 | inconclusive: 20.6 µM [cytotoxic, single point] |  |
| CCN(CC)CCn1c2c(c(SCC(=O)Nc3nc4ccccc4s3)nc1=O)CCC2 | inconclusive: 18.4 µM [cytotoxic, single point] |  |
| COC(=O)c1ccc2nc(C3CCCCC3)c(Cc3ccccc3C(F)(F)F)n2c1 | inconclusive: 18.4 µM [cytotoxic, single point] |  |
| CC(C)Oc1ccc(C(CC(=O)O)n2cnnn2)cc1 (stereo not drawn) | inconclusive: 32.6 µM [rising, single point] |  |

Already shown: an excerpt of the list.

| SMILES | Potency | activity change, negative = cytotoxicity |
| --- | --- | --- |
| N[C@@H](Cc1ccccc1)C(=O)N1CCOCC1 | inconclusive: 16.4 µM [rising, single point] |  |
| COc1ccc(NC(=O)NC2CCCCCCC2)cc1OC | inconclusive: 0.0366 µM [cytotoxic, full curve] |  |
| Cc1cccnc1Nc1ncnc(N)c1[N+](=O)[O-] |  | inactive: 1.59% |
| O=C(NCCOc1ccc(F)cc1)C1CCN(S(=O)(=O)c2ccccc2)CC1 | inconclusive: 32.6 µM [cytotoxic, single point] |  |
| COc1cc2c(cc1OC)CN(CC(=O)Nc1ccccc1SC)CC2 | inconclusive: 23.1 µM [cytotoxic, single point] |  |
| CC1CC(=O)N(c2ccc(NCCc3ccc(O)cc3)c([N+](=O)[O-])c2)C1=O (stereo not drawn) | inconclusive: 18.4 µM [cytotoxic, partial curve, poor fit] |  |
| COc1ccc(N2CCN(Cc3nc4c(c(=O)n(C)c(=O)n4C)n3CCc3ccccc3)CC2)cc1 |  | inactive: 16% |
| COc1ccccc1C(=O)Nc1nc(-c2ccc(S(=O)(=O)N3CCOCC3)cc2)cs1 | active: 4.61 µM |  |
| Cc1ccc(OCc2nnc(SCC(=O)c3ccccc3)n2-c2ccccc2)cc1 |  | inactive: -27.5% |
| COCC1CCN(C(=O)c2cc(COc3cc(C)c(Cl)c(C)c3)on2)C1 (stereo not drawn) |  | inactive: -11.2% |
| Cc1ccc(S(=O)(=O)NN2CCCCCC2)cc1 |  | inactive: 0.775% |
| Cc1cc2nc(C(C)(C)C)c(Cc3ccsc3)n2c(C)c1Br |  | inactive: -15.1% |
| CCCCC[C@@H]1C=C(C(=O)O)[C@H](c2ccc3c(c2)OCO3)N1S(=O)(=O)c1ccc(C)cc1 |  | inactive: -0.121% |
| Cc1cc(S(=O)(=O)Nc2cccnc2)c(C)s1 | inconclusive: 10.3 µM [rising, partial curve, poor fit] |  |
| COC(=O)c1scc(C)c1N1C(=O)c2ccccc2C1=O |  | inconclusive: 4% |
| CCCOc1cccc(NC(=O)c2cc(C)oc2C)c1 |  | inactive: -12.5% |
| Cc1ccc(OCCCCn2ccnc2C)c(C)c1 | inconclusive: 8.2 µM [cytotoxic, partial curve] |  |
| O=C1CN(C(=O)CN2CCCC2)C(c2ccccc2)c2cc(Br)ccc2N1 (stereo not drawn) | inconclusive: 29.1 µM [cytotoxic, single point] |  |
| CCc1ccc(C(=O)NNc2cc(Cl)ccc2Cl)cc1 | inconclusive: 29.1 µM [cytotoxic, single point] |  |
| C[C@@H]1CCC(=O)N(C[C@@H](C)CC#N)CC1 | inconclusive: 29.1 µM [rising, single point] |  |
| O=C(c1ccccc1Br)N1CCN(Cc2ccc3c(c2)OCO3)CC1 | inconclusive: 20.6 µM [cytotoxic, single point] |  |

Further structures follow.

| SMILES | Potency | activity change, negative = cytotoxicity |
| --- | --- | --- |
| CCn1cc(CNC(=O)c2cc(-c3ccc(C)c(C)c3)nc3ccccc23)c(C)n1 | inconclusive: 23.1 µM [cytotoxic, partial curve, poor fit] |  |
| O=C(N/N=C/C=C/c1ccccc1)c1cccc(Br)c1 | inconclusive: 20.6 µM [cytotoxic, single point] |  |
| COc1ccc(NC(=O)N(C)[C@H]2C[C@H]3c4[nH]c5ccc(-c6ccc7c(c6)OCO7)cc5c4CCN3C[C@H]2[C@H](C)O)cc1 |  | inactive: -22% |
| CCOC(=O)C1=C(C)N(C)C(C)=C(C(=O)OCC)C1c1ccsc1 | inconclusive: 10.3 µM [cytotoxic, partial curve] |  |
| CSCCC(NC(=O)c1ccc(Cl)cc1Cl)C(=O)N1CCCCCCC1 (stereo not drawn) | inconclusive: 5.8 µM [cytotoxic, full curve] |  |
| Cc1ccc(S(=O)(=O)N2CCCC2=O)c(C)c1N(C)S(C)(=O)=O | inconclusive: 29.1 µM [rising, partial curve, poor fit] |  |
| CCC(C)c1ccc(OCCn2ccnc2)cc1 (stereo not drawn) | inconclusive: 29.1 µM [cytotoxic, single point] |  |
| O=C(Nc1ccc(C(=O)O)cc1)/C(=C\c1ccc2c(c1)OCO2)NC(=O)c1ccc(Br)cc1 | inconclusive: 29.1 µM [rising, single point] |  |
| COc1ccc(-c2cc(C(=O)N3CCCCCC3)no2)cc1OC | inconclusive: 6.51 µM [cytotoxic, partial curve] |  |
| O=C(C1CCCN(c2ncnc3c2nc2n3CCCCC2)C1)N1CCN(c2cccc(Cl)c2)CC1 (stereo not drawn) | active: 23.1 µM |  |
| Cc1ccc(S(=O)(=O)N(CC(=O)Nc2cccc([N+](=O)[O-])c2)Cc2ccc(Cl)cc2)cc1 | inconclusive: 29.1 µM [cytotoxic, single point] |  |
| Cc1ccc(NC(=O)c2ccc(NC(=O)N3CCSc4nc(C)cc(C)c43)cc2)c(Cl)c1 |  | inactive: 5.65% |
| Cc1nnc(-c2cccc(Br)c2)c2cn(-c3ccccc3)nc12 | inconclusive: 23.1 µM [cytotoxic, single point] |  |
| O=C(NC(Cc1ccccc1)c1nc2ccccc2[nH]1)c1ccc(Cl)c([N+](=O)[O-])c1 (stereo not drawn) |  | inactive: -25.1% |
| C=CCOC(=O)C1=C(C)NC(=O)NC1c1ccc(OC(=O)c2ccco2)c(OC)c1 (stereo not drawn) | inconclusive: 23.1 µM [rising, single point] |  |
| COc1cc(/C=C2\C=Cc3ccccc32)ccc1N(C)C |  | inactive: 0% |
| CCOC(=O)N1CCN(CC(O)COC(CC)c2ccccc2)CC1 (stereo not drawn) | inconclusive: 13 µM [cytotoxic, partial curve] |  |
| CC(C)N(N=Nc1ccc([N+](=O)[O-])cc1)C(C)C | inconclusive: 29.1 µM [rising, single point] |  |
| OC(CN1CCCCC1)Cn1c2ccc(Cl)cc2c2cc(Cl)ccc21 (stereo not drawn) | inconclusive: 20.6 µM [cytotoxic, single point] |  |
| CC1CN2C(c3ccc([N+](=O)[O-])cc3)=CSC2=N1 (stereo not drawn) |  | inactive: 9.05% |
| Cc1cc(CNC(=O)Cc2ccccc2)c2ccccc2n1 | inconclusive: 11.6 µM [cytotoxic, partial curve] |  |
| c1ccc(-c2nnc(C(c3ccccc3)c3ccccc3)o2)cc1 | inconclusive: 18.4 µM [cytotoxic, partial curve] |  |
